Measured values taken from the supplement of paper PMC10849652.
Some of the results follow.

Sequences of proteins named here, by UniProt entry; tags and fusion partners are left off. A change or cut given only in a name is not applied to a line headed by its entry.
UniProt P30038: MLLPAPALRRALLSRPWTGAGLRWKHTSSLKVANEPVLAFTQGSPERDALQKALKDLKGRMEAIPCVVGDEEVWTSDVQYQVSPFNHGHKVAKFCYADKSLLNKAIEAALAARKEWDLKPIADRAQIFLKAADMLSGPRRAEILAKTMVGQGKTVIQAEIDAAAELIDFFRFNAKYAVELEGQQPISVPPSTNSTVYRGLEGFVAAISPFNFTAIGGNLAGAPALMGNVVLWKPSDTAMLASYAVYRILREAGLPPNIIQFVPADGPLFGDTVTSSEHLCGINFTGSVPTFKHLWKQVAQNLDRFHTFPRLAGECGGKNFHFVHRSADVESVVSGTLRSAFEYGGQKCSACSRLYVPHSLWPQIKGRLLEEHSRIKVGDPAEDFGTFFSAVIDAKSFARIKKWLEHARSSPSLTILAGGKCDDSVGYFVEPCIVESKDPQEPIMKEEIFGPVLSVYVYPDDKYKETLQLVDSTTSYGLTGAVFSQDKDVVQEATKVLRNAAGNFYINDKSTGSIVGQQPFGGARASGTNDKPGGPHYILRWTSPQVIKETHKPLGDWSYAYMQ
UniProt Q6ZTN6: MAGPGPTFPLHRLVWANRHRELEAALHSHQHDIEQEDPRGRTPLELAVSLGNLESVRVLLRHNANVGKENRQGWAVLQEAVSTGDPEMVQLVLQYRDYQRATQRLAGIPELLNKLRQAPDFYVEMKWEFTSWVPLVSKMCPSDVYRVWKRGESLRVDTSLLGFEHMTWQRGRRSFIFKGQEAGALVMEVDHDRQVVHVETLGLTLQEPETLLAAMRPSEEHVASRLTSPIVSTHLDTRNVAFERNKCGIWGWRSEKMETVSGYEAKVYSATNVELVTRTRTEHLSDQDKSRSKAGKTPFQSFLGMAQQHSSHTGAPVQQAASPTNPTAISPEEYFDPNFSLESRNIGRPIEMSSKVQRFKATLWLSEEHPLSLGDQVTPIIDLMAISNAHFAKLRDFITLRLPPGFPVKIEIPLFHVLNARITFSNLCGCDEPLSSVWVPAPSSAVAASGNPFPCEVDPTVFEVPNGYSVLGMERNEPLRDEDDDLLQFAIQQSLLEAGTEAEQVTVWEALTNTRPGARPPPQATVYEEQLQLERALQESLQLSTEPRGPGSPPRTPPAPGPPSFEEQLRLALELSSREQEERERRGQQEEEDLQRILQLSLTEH
UniProt Q9BTT0: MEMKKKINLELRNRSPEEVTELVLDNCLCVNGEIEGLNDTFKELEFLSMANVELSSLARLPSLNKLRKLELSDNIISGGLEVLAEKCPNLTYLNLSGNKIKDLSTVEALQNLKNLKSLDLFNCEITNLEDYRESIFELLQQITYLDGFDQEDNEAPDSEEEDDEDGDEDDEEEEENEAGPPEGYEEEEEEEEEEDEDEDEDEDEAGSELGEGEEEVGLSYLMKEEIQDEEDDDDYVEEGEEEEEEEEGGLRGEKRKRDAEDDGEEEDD
UniProt Q8WVL7: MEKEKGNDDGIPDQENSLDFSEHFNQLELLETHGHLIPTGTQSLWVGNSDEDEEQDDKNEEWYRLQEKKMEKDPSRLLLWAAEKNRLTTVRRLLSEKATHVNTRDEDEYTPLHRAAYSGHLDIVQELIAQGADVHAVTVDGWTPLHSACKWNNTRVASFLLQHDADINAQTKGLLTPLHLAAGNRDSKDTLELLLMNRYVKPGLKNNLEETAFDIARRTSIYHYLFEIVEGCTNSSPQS
UniProt P56377: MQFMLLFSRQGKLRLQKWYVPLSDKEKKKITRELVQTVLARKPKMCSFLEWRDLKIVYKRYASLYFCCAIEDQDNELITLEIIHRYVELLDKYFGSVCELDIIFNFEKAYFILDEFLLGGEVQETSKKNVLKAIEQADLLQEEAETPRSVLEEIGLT
UniProt P08133: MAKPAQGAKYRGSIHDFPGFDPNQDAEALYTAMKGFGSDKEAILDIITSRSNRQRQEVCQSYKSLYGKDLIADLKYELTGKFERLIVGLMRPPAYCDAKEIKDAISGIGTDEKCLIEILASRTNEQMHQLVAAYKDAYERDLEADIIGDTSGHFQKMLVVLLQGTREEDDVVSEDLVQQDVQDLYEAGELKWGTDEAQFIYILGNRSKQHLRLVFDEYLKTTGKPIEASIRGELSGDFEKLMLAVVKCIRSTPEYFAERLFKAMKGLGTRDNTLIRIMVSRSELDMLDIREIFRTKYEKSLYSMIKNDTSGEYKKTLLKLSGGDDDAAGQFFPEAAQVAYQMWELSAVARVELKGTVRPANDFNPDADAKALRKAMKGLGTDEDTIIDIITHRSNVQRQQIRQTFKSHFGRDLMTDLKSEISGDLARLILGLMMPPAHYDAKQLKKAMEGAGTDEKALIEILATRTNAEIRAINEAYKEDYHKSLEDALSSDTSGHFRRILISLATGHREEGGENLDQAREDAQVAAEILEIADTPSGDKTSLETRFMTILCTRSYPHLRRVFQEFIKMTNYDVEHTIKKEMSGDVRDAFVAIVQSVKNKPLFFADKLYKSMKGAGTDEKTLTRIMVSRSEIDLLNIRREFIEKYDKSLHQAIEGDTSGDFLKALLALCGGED
UniProt P31751: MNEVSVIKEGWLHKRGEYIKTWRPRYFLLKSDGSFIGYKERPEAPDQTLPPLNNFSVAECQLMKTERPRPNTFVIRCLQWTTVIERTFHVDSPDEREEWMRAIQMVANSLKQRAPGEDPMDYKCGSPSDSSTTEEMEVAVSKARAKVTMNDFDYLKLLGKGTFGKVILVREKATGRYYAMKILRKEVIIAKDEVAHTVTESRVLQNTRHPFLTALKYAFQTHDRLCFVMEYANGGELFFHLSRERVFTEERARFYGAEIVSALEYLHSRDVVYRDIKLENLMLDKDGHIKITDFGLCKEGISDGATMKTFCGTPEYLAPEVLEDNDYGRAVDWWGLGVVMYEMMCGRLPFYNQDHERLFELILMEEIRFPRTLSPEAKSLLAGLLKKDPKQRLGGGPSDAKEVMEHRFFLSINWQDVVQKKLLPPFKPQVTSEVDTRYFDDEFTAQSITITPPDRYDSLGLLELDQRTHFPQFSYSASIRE
UniProt Q8IWZ3: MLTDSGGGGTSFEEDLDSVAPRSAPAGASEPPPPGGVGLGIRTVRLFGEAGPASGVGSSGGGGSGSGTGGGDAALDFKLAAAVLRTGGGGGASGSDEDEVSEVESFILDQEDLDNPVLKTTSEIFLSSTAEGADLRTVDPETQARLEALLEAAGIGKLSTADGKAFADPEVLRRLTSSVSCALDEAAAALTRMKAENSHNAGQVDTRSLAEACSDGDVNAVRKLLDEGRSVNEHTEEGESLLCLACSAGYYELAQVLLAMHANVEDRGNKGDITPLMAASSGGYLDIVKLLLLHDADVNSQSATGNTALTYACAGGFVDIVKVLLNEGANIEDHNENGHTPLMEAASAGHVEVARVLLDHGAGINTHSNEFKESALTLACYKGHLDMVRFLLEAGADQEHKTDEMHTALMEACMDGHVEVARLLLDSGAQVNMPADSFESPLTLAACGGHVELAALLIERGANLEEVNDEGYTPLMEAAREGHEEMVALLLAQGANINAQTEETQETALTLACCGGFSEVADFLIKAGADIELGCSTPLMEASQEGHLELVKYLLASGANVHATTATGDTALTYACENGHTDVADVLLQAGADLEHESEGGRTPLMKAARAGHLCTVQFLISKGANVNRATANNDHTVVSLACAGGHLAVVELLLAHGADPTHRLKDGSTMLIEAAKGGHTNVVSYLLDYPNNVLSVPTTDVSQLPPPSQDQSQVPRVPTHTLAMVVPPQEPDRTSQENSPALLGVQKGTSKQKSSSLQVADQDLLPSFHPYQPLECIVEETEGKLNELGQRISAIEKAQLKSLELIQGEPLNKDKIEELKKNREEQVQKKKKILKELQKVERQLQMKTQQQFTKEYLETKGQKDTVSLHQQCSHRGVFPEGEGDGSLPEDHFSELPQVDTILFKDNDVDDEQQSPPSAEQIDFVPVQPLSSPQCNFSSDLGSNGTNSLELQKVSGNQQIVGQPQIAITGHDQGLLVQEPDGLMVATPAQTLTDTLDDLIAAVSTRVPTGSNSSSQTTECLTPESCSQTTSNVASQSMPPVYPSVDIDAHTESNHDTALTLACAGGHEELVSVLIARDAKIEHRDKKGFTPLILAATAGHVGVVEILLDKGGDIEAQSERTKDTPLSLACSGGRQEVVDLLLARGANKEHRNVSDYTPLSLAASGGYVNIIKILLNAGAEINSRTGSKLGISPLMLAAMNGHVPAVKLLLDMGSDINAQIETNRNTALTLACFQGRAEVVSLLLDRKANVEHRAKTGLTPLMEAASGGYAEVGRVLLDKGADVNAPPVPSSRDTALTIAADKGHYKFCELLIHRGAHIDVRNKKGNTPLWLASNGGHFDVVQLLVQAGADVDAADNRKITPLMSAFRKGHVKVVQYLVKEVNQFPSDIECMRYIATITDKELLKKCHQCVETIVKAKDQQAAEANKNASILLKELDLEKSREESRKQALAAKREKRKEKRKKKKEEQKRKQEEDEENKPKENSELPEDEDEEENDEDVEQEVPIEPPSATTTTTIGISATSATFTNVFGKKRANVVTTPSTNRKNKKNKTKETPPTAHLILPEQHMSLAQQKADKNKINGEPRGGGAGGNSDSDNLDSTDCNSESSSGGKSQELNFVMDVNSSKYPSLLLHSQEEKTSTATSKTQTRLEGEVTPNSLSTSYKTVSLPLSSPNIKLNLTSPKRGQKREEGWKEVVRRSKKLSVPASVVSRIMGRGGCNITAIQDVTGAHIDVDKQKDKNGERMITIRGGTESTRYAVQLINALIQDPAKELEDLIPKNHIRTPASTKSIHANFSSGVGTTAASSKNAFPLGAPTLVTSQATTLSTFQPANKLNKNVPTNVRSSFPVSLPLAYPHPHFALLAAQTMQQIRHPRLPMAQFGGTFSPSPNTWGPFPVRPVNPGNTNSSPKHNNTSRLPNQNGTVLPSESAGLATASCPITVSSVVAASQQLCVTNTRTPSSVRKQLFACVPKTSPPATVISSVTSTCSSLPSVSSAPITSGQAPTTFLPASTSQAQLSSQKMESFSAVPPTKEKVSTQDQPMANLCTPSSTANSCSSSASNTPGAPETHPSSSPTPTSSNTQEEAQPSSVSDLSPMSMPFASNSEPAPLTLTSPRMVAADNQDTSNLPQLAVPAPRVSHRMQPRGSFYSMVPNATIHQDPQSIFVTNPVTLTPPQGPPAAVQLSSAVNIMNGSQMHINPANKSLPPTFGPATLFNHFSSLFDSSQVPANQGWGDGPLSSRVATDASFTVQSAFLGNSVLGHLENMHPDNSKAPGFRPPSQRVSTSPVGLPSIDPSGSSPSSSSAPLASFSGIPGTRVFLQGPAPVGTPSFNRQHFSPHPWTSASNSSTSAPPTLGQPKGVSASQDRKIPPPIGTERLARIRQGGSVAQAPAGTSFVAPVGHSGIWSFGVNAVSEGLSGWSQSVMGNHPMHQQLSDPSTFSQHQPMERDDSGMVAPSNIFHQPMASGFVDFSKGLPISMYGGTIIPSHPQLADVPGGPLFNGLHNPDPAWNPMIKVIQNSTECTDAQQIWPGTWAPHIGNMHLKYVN
UniProt P04075: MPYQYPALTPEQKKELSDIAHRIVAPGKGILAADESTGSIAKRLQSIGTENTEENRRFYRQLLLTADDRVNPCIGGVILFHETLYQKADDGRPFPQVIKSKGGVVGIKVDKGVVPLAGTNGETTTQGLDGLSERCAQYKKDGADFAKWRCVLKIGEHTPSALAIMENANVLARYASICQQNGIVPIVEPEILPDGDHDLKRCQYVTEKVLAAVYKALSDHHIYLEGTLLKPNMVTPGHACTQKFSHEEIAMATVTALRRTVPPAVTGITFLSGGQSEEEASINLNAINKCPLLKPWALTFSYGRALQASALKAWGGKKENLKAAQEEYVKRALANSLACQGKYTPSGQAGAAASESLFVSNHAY
UniProt Q96CW1: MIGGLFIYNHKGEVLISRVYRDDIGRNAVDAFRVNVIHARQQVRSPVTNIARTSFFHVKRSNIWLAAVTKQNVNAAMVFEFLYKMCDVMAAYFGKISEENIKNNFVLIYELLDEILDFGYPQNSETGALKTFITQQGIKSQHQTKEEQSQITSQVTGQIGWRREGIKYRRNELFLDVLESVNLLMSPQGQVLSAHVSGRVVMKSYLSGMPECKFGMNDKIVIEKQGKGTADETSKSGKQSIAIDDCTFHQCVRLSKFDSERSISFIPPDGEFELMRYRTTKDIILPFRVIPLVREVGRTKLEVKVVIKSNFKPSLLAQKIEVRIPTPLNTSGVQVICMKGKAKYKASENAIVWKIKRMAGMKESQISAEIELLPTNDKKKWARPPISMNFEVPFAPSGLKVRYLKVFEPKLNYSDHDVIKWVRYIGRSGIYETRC

The targets below were run with Cc1nc(Nc2ncc(C(=O)Nc3c(C)cccc3Cl)s2)cc(N2CCN(CCO)CC2)n1 [dasatinib] (assay: log2 fold change, soluble protein after heating vs DMSO (PISA); higher = thermal stabilisation; K562 lysate, 10 uM; active = over 0.2 and 3.5 SD of the protein, either way, in both replicates (recomputed)).
Summary of the method: (§1)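 Quantification was by TMTpro 16plex LC-MS/MS with equalised channel sums, applied to the supernatant after 21,000xg for 90 min. Samples were crude K562 extract at 1 mg/mL protein in PBS pH 7.4 with 1 mM MgCl2, treated with 10 μM compound for 30 min, heated for 3 min across 48°C-58°C, pooled and brought to 0.5% NP-40 at 4°C. Values are log-two fold changes in thermal stability relative to solvent controls, from duplicates.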

log2 fold change, inactive:
ALDH4A1 (UniProt P30038) -0.01
ALG8 (UniProt Q9BVK2) -0.051
AP3M1 (UniProt Q9Y2T2) -0.032
ALS2 (UniProt Q96Q42) -0.007
ANXA7 (UniProt P20073) 0.014
ALKBH2 (UniProt Q6NS38) 0.035
ANKRD13D isoform 3 (UniProt Q6ZTN6) -0.006
AMD1 (UniProt P17707) -0.031
AKT1S1 isoform 3 (UniProt Q96B36) 0.008
ANO6 (UniProt Q4KMQ2) 0.005
ANAPC2 (UniProt Q9UJX6) -0.017
ANP32E (UniProt Q9BTT0) 0.015
ANKRD49 (UniProt Q8WVL7) 0.027
AP2S1 (UniProt P53680) -0.007
ANXA2 isoform 2 (UniProt P07355) 0.048
ANKRD28 (UniProt O15084) -0.045
ALDH16A1 (UniProt Q8IZ83) -0.035
ANKMY2 (UniProt Q8IV38) -0.011
AP1G1 isoform 2 (UniProt O43747) 0.03
ANKRD52 (UniProt Q8NB46) -0.048
ALDH2 (UniProt P05091) 0.014
ANK3 (UniProt Q12955) -0.025
AP1S2 isoform 2 (UniProt P56377) -0.07
ANXA6 (UniProt P08133) -0.016
ALAD (UniProt P13716) 0.028
AKT2 (UniProt P31751) 0.003
ANKS1A (UniProt Q92625) -0.006
ANO10 (UniProt Q9NW15) -0.007
ANKRD29 (UniProt Q8N6D5) -0.04
ALKBH8 isoform 4 (UniProt Q96BT7) 0
ALDH1A2 (UniProt O94788) -0.008
ANKHD1 isoform 6 (UniProt Q8IWZ3) -0.024
ALDOA (UniProt P04075) 0.011
AP2M1 (UniProt Q96CW1) 0

The targets below were run with Cc1ncc(-c2ccnc(Nc3ccc(S(C)(=O)=O)cc3)n2)n1C(C)C in the same assay as above.
Summary of the method: as §1

log2 fold change, inactive:
ALDH4A1 (UniProt P30038) 0.008
ALG8 (UniProt Q9BVK2) -0.077
AP3M1 (UniProt Q9Y2T2) -0.005
ALS2 (UniProt Q96Q42) 0.042
ANXA7 (UniProt P20073) -0.003
ALKBH2 (UniProt Q6NS38) -0.115
ANKRD13D isoform 3 (UniProt Q6ZTN6) -0.027
AMD1 (UniProt P17707) -0.001
AKT1S1 isoform 3 (UniProt Q96B36) -0.002
ANO6 (UniProt Q4KMQ2) -0.004
ANAPC2 (UniProt Q9UJX6) -0.021
ANP32E (UniProt Q9BTT0) 0.028
ANKRD49 (UniProt Q8WVL7) -0.021
AP2S1 (UniProt P53680) 0.024
ANXA2 isoform 2 (UniProt P07355) 0.003
ANKRD28 (UniProt O15084) -0.007
ALDH16A1 (UniProt Q8IZ83) -0.023
ANKMY2 (UniProt Q8IV38) 0.001
AP1G1 isoform 2 (UniProt O43747) 0.003
ANKRD52 (UniProt Q8NB46) -0.026
ALDH2 (UniProt P05091) -0.013
ANK3 (UniProt Q12955) -0.048
AP1S2 isoform 2 (UniProt P56377) 0.029
ANXA6 (UniProt P08133) -0.015
ALAD (UniProt P13716) 0.008
AKT2 (UniProt P31751) -0.008
ANKS1A (UniProt Q92625) 0.017
ANO10 (UniProt Q9NW15) -0.004
ANKRD29 (UniProt Q8N6D5) 0.032
ALKBH8 isoform 4 (UniProt Q96BT7) 0
ALDH1A2 (UniProt O94788) -0.009
ANKHD1 isoform 6 (UniProt Q8IWZ3) 0.019
ALDOA (UniProt P04075) 0.001
AP2M1 (UniProt Q96CW1) 0.055
